Where a chain is given by its changes, count along the chain named. These are yes or no findings as the source states them, for the method shown. For part of these data: In cells and extracts the contact can be indirect. Some results given as binding are weak or reduced against the parent protein; the word gives no strength. Where a sequence is shown, tags or fusion partners need not be part of it. One block for each binder: values may come before it.
Assays:
[1] = target: T1, FLAG-HsGeminin-His6 (wild type) (human) (UniProt O75496); assay: co-IP; extract of Sf9 cells expressing one untagged HsMCM subunit mixed with extract of Sf9 cells expressing Myc-HsCdc6, FLAG-HsCdt1 and/or FLAG-HsGeminin-His6; anti-FLAG or anti-Myc agarose beads, 4 °C, 3 h; PBS plus 1% Triton X-100; washed with PBS; Western blot
T1 sequence: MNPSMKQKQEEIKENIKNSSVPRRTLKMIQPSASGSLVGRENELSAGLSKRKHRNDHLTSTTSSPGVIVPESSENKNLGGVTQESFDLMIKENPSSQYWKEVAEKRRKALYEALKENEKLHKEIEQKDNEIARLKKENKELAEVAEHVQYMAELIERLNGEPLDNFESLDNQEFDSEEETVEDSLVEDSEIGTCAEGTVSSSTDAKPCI

Amino acid sequences for entries named in this document (tags omitted). A change or cut given only in a name is not applied to a line headed by its entry.
UniProt P33991: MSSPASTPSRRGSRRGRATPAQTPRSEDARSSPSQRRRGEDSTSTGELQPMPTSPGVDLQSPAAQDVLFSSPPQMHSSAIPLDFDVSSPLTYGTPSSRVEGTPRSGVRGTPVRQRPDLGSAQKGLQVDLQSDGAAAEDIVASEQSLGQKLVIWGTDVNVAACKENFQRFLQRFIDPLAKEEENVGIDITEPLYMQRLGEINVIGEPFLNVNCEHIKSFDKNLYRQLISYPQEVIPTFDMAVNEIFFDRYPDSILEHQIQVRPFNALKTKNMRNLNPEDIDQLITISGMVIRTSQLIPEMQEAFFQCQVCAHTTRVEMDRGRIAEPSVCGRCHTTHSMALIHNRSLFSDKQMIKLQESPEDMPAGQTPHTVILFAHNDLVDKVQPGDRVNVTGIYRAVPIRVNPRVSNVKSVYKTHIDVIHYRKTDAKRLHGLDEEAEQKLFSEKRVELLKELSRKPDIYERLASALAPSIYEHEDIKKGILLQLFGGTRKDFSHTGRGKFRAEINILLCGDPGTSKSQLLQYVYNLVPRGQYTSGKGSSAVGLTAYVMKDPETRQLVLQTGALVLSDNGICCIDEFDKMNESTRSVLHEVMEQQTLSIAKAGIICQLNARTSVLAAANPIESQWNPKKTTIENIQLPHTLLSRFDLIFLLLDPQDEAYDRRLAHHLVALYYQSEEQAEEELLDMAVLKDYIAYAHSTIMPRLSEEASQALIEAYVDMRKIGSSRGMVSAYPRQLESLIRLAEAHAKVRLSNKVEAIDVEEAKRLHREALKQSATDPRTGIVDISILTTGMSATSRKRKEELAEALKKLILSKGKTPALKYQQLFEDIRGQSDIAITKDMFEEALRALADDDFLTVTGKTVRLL
UniProt P33993: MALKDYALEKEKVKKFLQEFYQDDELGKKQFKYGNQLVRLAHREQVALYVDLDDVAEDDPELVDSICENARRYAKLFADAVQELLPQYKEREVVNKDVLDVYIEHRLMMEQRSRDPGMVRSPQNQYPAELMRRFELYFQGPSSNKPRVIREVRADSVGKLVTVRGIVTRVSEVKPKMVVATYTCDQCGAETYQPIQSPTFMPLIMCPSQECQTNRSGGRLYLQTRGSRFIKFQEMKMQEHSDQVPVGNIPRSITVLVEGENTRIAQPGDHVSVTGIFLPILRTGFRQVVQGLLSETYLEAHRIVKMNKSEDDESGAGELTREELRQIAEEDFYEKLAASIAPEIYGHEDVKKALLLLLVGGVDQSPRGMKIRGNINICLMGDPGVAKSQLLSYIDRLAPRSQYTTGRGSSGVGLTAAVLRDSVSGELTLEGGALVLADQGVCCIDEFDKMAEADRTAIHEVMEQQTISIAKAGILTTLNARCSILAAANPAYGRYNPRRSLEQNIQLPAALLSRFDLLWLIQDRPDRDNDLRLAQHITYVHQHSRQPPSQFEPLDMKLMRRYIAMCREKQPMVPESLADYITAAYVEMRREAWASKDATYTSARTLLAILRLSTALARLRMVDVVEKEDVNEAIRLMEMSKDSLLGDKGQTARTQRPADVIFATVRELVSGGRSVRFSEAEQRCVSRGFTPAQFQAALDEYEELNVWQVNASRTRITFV

HsGeminin-BD (human) = target: T2, HsGeminin-BD (human) (UniProt O75496); assay: co-IP; 60 ng purified FLAG-HsCdt1 with 40 ng wild-type or mutant HsGeminin; rabbit anti-human Geminin polyclonal antibodies on protein A/G plus agarose; PBS plus 1 mg/ml BSA, 4 °C, 3 h; washed with PBS plus 0.5 M NaCl; Western blot; both purified
T2 sequence: T1 sequence with L110A, L114A, E116A, N117A, E118A, H121A, K122A

[2] = target: HsMCM2–7 complex (human | human (endogenous in 293T)), P49736; assay: recruitment to DNA-coupled magnetic beads; lamin B2 DNA fragment beads with HsORC and HsCdc6 for 30 min, then 26 nM HsMCM467 or 13 nM HsMCM2–7 for 30 min, then 60 nM HsGeminin for 30 min; no HsCdt1; Western blot; both purified; settings: remark: other sources report otherwise
FLAG-HsCdt1 (human) = target: T3, FLAG-HsCdt1 (human) (UniProt Q9H211); assay: recruitment to DNA-coupled magnetic beads; without HsMCM complexes: purified proteins (13 nM; HsGeminin 200 nM unless indicated) with beads carrying pUC19-lamin-B2 plasmid or linear lamin B2 DNA; 0.1 M NaCl, 1 mM ATP, 37 °C, 30 min; bound proteins by Western blot; both purified
T3 sequence: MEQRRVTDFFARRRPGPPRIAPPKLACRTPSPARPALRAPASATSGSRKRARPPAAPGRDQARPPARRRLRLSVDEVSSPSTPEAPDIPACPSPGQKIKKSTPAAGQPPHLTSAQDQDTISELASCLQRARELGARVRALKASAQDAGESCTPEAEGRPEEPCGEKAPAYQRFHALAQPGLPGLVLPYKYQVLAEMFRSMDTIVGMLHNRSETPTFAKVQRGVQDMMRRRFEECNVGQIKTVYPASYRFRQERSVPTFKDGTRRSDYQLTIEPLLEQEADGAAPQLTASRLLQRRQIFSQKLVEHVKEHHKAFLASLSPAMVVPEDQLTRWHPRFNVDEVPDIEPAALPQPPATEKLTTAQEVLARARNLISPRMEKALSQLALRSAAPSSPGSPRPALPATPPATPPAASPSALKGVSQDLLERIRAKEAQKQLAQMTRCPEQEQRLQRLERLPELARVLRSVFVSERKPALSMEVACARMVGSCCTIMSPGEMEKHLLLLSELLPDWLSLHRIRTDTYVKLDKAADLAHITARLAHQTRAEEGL

HsMCM467 complex (human) = HsMCM467 complex (human) (UniProt P33991+Q14566+P33993); assay: recruitment to DNA-coupled magnetic beads; lamin B2 DNA fragment beads with HsORC and HsCdc6 for 30 min, then 26 nM HsMCM467 or 13 nM HsMCM2–7 for 30 min, then 60 nM HsGeminin for 30 min; no HsCdt1; Western blot; both purified

B2: FLAG-HsCdt1 (protein, UniProt Q9H211 1-546)
chain: T3 sequence
- binding (HsGeminin-BD (human)): no binding

B4: FLAG-HsGeminin-His6 (wild type), O75496 1-209 (protein)
chain: T1 sequence
- binding [2]: binds

B6: FLAG-HsGeminin-His6 (wild type) (protein, UniProt O75496 1-209)
chain: T1 sequence
- binding (HsMCM467 complex (human)): no binding (tested: 60 nM HsGeminin)

More lines, now with the values ahead:

- binding [1]: no binding
B1: untagged human Mcm6 (protein, UniProt Q14566 1-821)
chain: MDLAAAAEPGAGSQHLEVRDEVAEKCQKLFLDFLEEFQSSDGEIKYLQLAEELIRPERNTLVVSFVDLEQFNQQLSTTIQEEFYRVYPYLCRALKTFVKDRKEIPLAKDFYVAFQDLPTRHKIRELTSSRIGLLTRISGQVVRTHPVHPELVSGTFLCLDCQTVIRDVEQQFKYTQPNICRNPVCANRRRFLLDTNKSRFVDFQKVRIQETQAELPRGSIPRSLEVILRAEAVESAQAGDKCDFTGTLIVVPDVSKLSTPGARAETNSRVSGVDGYETEGIRGLRALGVRDLSYRLVFLACCVAPTNPRFGGKELRDEEQTAESIKNQMTVKEWEKVFEMSQDKNLYHNLCTSLFPTIHGNDEVKRGVLLMLFGGVPKTTGEGTSLRGDINVCIVGDPSTAKSQFLKHVEEFSPRAVYTSGKASSAAGLTAAVVRDEESHEFVIEAGALMLADNGVCCIDEFDKMDVRDQVAIHEAMEQQTISITKAGVKATLNARTSILAAANPISGHYDRSKSLKQNINLSAPIMSRFDLFFILVDECNEVTDYAIARRIVDLHSRIEESIDRVYSLDDIRRYLLFARQFKPKISKESEDFIVEQYKHLRQRDGSGVTKSSWRITVRQLESMIRLSEAMARMHCCDEVQPKHVKEAFRLLNKSIIRVETPDVNLDQEEEIQMEVDEGAGGINGHADSPAPVNGINGYNEDINQESAPKASLRLGFSEYCRISNLIVLHLRKVEEEEDESALKRSELVNWYLKEIESEIDSEEELINKKRIIEKVIHRLTHYDHVLIELTQAGLKGSTEGSESYEEDPYLVVNPNYLLED

- binding [1]: binds
B3: untagged human Mcm5 (protein, UniProt P33992 1-734)
chain: MSGFDDPGIFYSDSFGGDAQADEGQARKSQLQRRFKEFLRQYRVGTDRTGFTFKYRDELKRHYNLGEYWIEVEMEDLASFDEDLADYLYKQPAEHLQLLEEAAKEVADEVTRPRPSGEEVLQDIQVMLKSDASPSSIRSLKSDMMSHLVKIPGIIIAASAVRAKATRISIQCRSCRNTLTNIAMRPGLEGYALPRKCNTDQAGRPKCPLDPYFIMPDKCKCVDFQTLKLQELPDAVPHGEMPRHMQLYCDRYLCDKVVPGNRVTIMGIYSIKKFGLTTSRGRDRVGVGIRSSYIRVLGIQVDTDGSGRSFAGAVSPQEEEEFRRLAALPNVYEVISKSIAPSIFGGTDMKKAIACLLFGGSRKRLPDGLTRRGDINLLMLGDPGTAKSQLLKFVEKCSPIGVYTSGKGSSAAGLTASVMRDPSSRNFIMEGGAMVLADGGVVCIDEFDKMREDDRVAIHEAMEQQTISIAKAGITTTLNSRCSVLAAANSVFGRWDETKGEDNIDFMPTILSRFDMIFIVKDEHNEERDVMLAKHVITLHVSALTQTQAVEGEIDLAKLKKFIAYCRVKCGPRLSAEAAEKLKNRYIIMRSGARQHERDSDRRSSIPITVRQLEAIVRIAEALSKMKLQPFATEADVEEALRLFQVSTLDAALSGTLSGVEGFTSQEDQEMLSRIEKQLKRRFAIGSQVSEHSIIKDFTKQKYPEHAIHKVLQLMLRRGEIQHRMQRKVLYRLK

- binding (FLAG-HsCdt1 (human)): no binding
B5: HsGeminin-BD (protein, UniProt O75496 1-209)
chain: T1 sequence with L110A, L114A, E116A, N117A, E118A, H121A, K122A

From publication PMC4215257
